Results are given in words; binding and its absence hold for the method and conditions named. For some assays here: In cells and extracts the contact can be indirect. Some binding calls cover weakened binding; strength is not graded here. Blank lines part the entries; values can stand above or below the substance they belong to.
Experiments:
FLAG-lamin A = FLAG-lamin A (UniProt P02545); experiment: co-IP; 293T cells (HEK293 in the legends) co-transfected with tagged constructs; IP with anti-HA or anti-FLAG antibody; lysis buffer 20 mM Tris-HCl pH 7.5, 250 mM NaCl, 0.1 mM EDTA, 10% glycerol, 0.1% NP-40; 4 °C overnight; Western blot
[1] = biological target: GST fusion of full-length lamin A (amino acids 1-646) (UniProt P02545); experiment: pull-down; 1 µg GST fusion protein immobilised on Glutathione Sepharose 4B beads, incubated with 6× His-tagged GSK3β at 4 °C overnight in 50 mM Tris-HCl pH 7.5, 0.2 mM EDTA, 150 mM NaCl, 0.1% NP-40; four washes; Western blot; both purified
[2] = biological target: GST fusion of truncated lamin A, C-terminal domain (amino acids 384-646) (UniProt P02545); experiment: as above
HA-GSK3β = HA-GSK3β (UniProt P49841); experiment: co-IP; 293T cells (HEK293 in the legends) co-transfected with tagged constructs; IP with anti-HA or anti-FLAG antibody; lysis buffer 20 mM Tris-HCl pH 7.5, 250 mM NaCl, 0.1 mM EDTA, 10% glycerol, 0.1% NP-40; 4 °C overnight; Western blot

The chains behind the UniProt entries cited, without tags or fusion partners. Where a name states a change or a piece, a line headed by the entry shows the natural chain unless it says otherwise. Residues count along the entry.
UniProt P02545: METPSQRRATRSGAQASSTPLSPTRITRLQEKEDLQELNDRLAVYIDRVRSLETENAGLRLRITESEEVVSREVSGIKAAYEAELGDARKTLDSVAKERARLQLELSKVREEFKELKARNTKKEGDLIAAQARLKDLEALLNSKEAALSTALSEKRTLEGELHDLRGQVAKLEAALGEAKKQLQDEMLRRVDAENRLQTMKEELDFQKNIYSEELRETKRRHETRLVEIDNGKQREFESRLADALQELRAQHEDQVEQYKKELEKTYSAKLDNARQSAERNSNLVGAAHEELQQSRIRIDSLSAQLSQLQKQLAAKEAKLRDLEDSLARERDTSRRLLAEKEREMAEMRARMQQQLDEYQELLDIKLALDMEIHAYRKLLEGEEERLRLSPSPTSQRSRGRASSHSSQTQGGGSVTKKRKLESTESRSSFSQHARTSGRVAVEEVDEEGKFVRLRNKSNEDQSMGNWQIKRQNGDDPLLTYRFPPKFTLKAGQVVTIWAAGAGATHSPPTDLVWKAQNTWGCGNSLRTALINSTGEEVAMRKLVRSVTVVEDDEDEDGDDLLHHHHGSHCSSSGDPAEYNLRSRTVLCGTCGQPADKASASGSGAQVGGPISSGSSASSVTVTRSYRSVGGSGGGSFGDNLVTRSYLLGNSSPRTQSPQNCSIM
GST fusion of truncated lamin A, C-terminal domain (amino acids 384-646): residues 384-646 of P02545
UniProt P49841: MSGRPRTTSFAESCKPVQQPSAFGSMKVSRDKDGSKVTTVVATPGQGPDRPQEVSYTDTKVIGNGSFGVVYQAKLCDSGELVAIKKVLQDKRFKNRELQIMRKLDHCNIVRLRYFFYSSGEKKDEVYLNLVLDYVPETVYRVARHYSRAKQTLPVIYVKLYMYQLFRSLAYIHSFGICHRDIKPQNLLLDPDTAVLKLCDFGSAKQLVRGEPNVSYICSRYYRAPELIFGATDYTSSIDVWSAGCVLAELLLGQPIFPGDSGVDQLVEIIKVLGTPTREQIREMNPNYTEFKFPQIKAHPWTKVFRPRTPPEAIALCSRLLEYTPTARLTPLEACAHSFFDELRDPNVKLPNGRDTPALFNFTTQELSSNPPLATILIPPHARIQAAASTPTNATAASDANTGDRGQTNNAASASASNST
UniProt P68400: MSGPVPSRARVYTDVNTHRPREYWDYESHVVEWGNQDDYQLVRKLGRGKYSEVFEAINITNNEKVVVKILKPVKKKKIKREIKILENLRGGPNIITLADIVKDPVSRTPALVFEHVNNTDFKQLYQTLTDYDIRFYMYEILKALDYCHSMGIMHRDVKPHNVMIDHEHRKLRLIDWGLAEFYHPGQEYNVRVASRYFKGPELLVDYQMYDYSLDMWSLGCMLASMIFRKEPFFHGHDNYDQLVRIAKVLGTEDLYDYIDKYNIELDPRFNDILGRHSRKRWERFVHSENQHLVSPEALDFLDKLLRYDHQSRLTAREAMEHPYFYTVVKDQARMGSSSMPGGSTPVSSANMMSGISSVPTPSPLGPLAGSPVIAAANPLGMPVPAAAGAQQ

binding (FLAG-lamin A): binds
Substance: HA-GSK3β (from UniProt P49841 1-420) (enzyme)

binding (FLAG-lamin A): binds
Substance: HA-CK2α (from UniProt P68400 1-391) (enzyme)

binding [1]: binds
binding [2]: binds
Substance: 6× His-tagged GSK3β (from UniProt P49841 1-420) (enzyme)

binding (HA-GSK3β): binds
Substance: FLAG-lamin A (from UniProt P02545 1-646)
